Measurements taken from paper doi:10.1101/2020.01.13.904318 (bioRxiv, 2020).
These are yes or no findings as the source states them, for the method shown. Some results given as binding are weak or reduced against the parent protein; the word gives no strength.

Assays:
[1] = biological target: purified FrlR UTRA-domain (E. coli) (UniProt P45544); test: SEC
[2] = biological target: purified FrlR UTRA-domain (E. coli) (UniProt P45544); test: NMR

B1: purified FrlR UTRA-domain (domain or fragment)
chain: QKVENALLTVSGFTDFGVSQGKATKEKVIEQERVSAAPFCEKLNIPGNSEVFHLCRVMYLDKEPLFIDSSWIPLSRYPDFDEIYVEGSSTYQLFQERFDTRVVSDKKTIDIFAATRPQAKWLKCELGEPLFRISKIAFDQNDKPVHVSELFCRANRITLTIDNKRH
B1 was tested, and the binding [1] was “binds” and the binding [2] was “binds”.
